# Results: the supplement of paper PMC9135407
# Values joined by “and” are separate entries in the source; they are usually repeats but may differ in a detail not shown here. Equal values may be shown once. Where a name gives a salt, the structure may show the parent alone. ± gives the standard deviation of the averaged measurements. The list shows a part of the results. Plates or batches differ in their baseline, so values are only roughly comparable.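 Culture-activated primary human stellate myofibroblasts, where regained lipid droplets signal inactivation. Value: share of Hoechst-counted cells above a per-plate Bodipy cutoff, in duplicate wells, with DMSO negative and nortriptyline positive controls on each plate. Hits: a control-normalized score above the plate's top-tenth-percentile nortriptyline wells, or one of a plate's three best wells. Final well concentrations are not given.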
# Test system: primary human hepatic stellate cells (donor 1)
# Assay: percent Bodipy-positive cells; higher = more lipid droplet accumulation
# Settings: 48 h
# [1] = library stock concentration: 10 mM
# [2] = library stock concentration: 3.33 mM
# [3] = library stock concentration: 1 mM
# [4] = library stock concentration: 6 mM
smiles,measurement,setting,value
COc1ccc2c(c1)c(CCN1CCOCC1)c(C)n2C(=O)c1cccc(Cl)c1Cl,percent Bodipy-positive cells,[1],29.1 ± 3.3%
c1cc2c(cc1[C@H]1OC[C@H]3[C@@H]1CO[C@@H]3c1ccc3c(c1)OCO3)OCO2 [Sesamin],percent Bodipy-positive cells,[2],7.96 ± 1.4%
same,percent Bodipy-positive cells,[1],13.1 ± 2.1%
c1ccc2c(N3CCNCC3)cccc2c1 [1-(1-Naphthyl)piperazine hydrochloride],percent Bodipy-positive cells,[1],62.9 ± 6.5%
CC[C@H]1CN2CC[C@H]1C[C@@H]2[C@@H](O)c1ccnc2ccc(OC)cc12 [Hydroquinidine],percent Bodipy-positive cells,[1],42.6 ± 25%
CC[C@@]1(O)C[C@H](O[C@H]2C[C@H](N(C)C)[C@H](O)[C@H](C)O2)c2c(cc3c(c2O)C(=O)c2c(O)cccc2C3=O)[C@H]1C(=O)OC [Aklavine hydrochloride],percent Bodipy-positive cells,[1],79.9 ± 4%
O=[N+]([O-])/C=C/c1ccc2c(c1)OCO2 [Syk Inhibitor III],percent Bodipy-positive cells,[2],81.8 ± 13%
CC(C)N(CCC(C(N)=O)(c1ccccc1)c1ccccn1)C(C)C (stereo unspecified) [Disopyramide],percent Bodipy-positive cells,,34.3 ± 21%
same,percent Bodipy-positive cells,[1],36.9 ± 8.5%
N=C(N)NN [Aminoguanidine hemisulfate],percent Bodipy-positive cells,[1],49.2 ± 18%
N=C(N)NN,percent Bodipy-positive cells,[1],38.9 ± 17%
Clc1ccc(C2CC3CCC2N3)cn1 (stereo unspecified),percent Bodipy-positive cells,library stock concentration: 24 mM,19.9 ± 0.81%
C[C@H](N)[C@H](O)c1ccc(O)c(O)c1 [Levonordefrin],percent Bodipy-positive cells,,9.48 ± 4.3%
same,percent Bodipy-positive cells,[1],21.7 ± 0.58%
same,percent Bodipy-positive cells,library stock concentration: 10.9 mM,2.14 ± 1.2%
CCCCCCC[n+]1ccc(-c2cc[n+](CCCCCCC)cc2)cc1 [DHBP dibromide],percent Bodipy-positive cells,[1],7.48 ± 2.4%
C=CCN1C[C@H](C)N([C@H](c2ccc(C(=O)N(CC)CC)cc2)c2cccc(OC)c2)C[C@H]1C,percent Bodipy-positive cells,[1],51.8% and 33.2%
C=CCN1C[C@H](C)N([C@H](c2ccc(C(=O)N(CC)CC)cc2)c2cccc(O)c2)C[C@H]1C,percent Bodipy-positive cells,[1],17.8 ± 8.3%
N[C@@H](Cc1ccc(N(CCCl)CCCl)cc1)C(=O)O [Melphalan],percent Bodipy-positive cells,library stock concentration: 6.6 mM,11.5% and 5.07%
Clc1ccc(C2=CCCC3CCC2N3)cn1 (stereo unspecified) [UB 165 fumarate],percent Bodipy-positive cells,[1],11 ± 1.3%
CC(C)=CCOc1c2occc2cc2ccc(=O)oc12 [Imperatorin],percent Bodipy-positive cells,[1],41.4% and 24.9%
CCN1C[C@]2(C)CC[C@H](OC)[C@@]34C1[C@]1(OCO[C@@]15C[C@H](OC)[C@H]1C[C@]3(O)[C@@H]5[C@H]1OC)[C@@H](OC(C)=O)[C@H]24 [Deltaline],percent Bodipy-positive cells,,9.8 ± 2.4%
CC(Cc1ccc(OCC(=O)O)cc1)NCC(O)c1cccc(Cl)c1 (stereo unspecified),percent Bodipy-positive cells,[1],36.9 ± 0.37%
OC1CCCCC1N1CCC(c2ccccc2)CC1 (stereo unspecified) [Vesamicol hydrochloride],percent Bodipy-positive cells,library stock concentration: 6.8 mM,19.7 ± 1.1%
same,percent Bodipy-positive cells,[1],42.9 ± 4.9%
C[C@H]1O[C@H](O[C@H]2[C@H](O)[C@@H](O)[C@@H](O)[C@H](O)[C@@H]2O)[C@@H](N)C[C@@H]1NC(=N)C(=O)O [Kasugamycin hydrochloride],percent Bodipy-positive cells,[1],19.8 ± 3.9%
C[C@H]1O[C@H](O[C@H]2[C@H](O)[C@@H](O)[C@@H](O)[C@H](O)[C@@H]2O)[C@@H](N)C[C@@H]1NC(=N)C(=O)O [Kasugamycin],percent Bodipy-positive cells,library stock concentration: 5.3 mM,7.77 ± 1.9%
NCCc1ccc(S(=O)(=O)F)cc1 [4-(2-Aminoethyl)benzenesulfonyl fluoride hydrochloride],percent Bodipy-positive cells,[1],55.5 ± 11%
NCCc1ccc(S(=O)(=O)F)cc1,percent Bodipy-positive cells,[2],27.2 ± 1.1%
same,percent Bodipy-positive cells,[1],30 ± 3.1%
O=C1CN=C(c2ccccc2Cl)c2cc([N+](=O)[O-])ccc2N1 [Clonazepam],percent Bodipy-positive cells,library stock concentration: 6.3 mM,11.7 ± 1.7%
O=C(O)Cc1cccnc1C(=O)O [Homoquinolinic acid],percent Bodipy-positive cells,[1],7.13 ± 0.43%
CCCCC/C=C\C/C=C\C/C=C\C/C=C\CCCC(=O)N[C@@H](C)CO [S-1 Methanandamide],percent Bodipy-positive cells,[3],6.9 ± 2.4%
CN[C@@H]1C[C@@H](c2ccc(Cl)c(Cl)c2)c2ccccc21 [Indatraline hydrochloride],percent Bodipy-positive cells,[1],100% and 83.2%
O=[N+]([O-])c1cc(O)c(O)c([N+](=O)[O-])c1,percent Bodipy-positive cells,[1],8.35 ± 1.7%
"O=[N+]([O-])c1cc(O)c(O)c([N+](=O)[O-])c1 [3,5-Dinitrocatechol]",percent Bodipy-positive cells,[1],47.7 ± 11%
CCCCC/C=C\C/C=C\C/C=C\C/C=C\CCCC(=O)NCCS(=O)(=O)O [N-Arachidonoyl Taurine],percent Bodipy-positive cells,[3],7.956 ± 0.078%
CN(C)C(=O)C(CCN1CCC(O)(c2ccc(Cl)cc2)CC1)(c1ccccc1)c1ccccc1.Cl,percent Bodipy-positive cells,library stock concentration: 9.7 mM,100%
CN1[C@@H]2CC[C@H]1C[C@@H](OC(=O)[C@H](CO)c1ccccc1)C2 [Hyoscyamine],percent Bodipy-positive cells,[2],8.9 ± 4.9%
same,percent Bodipy-positive cells,library stock concentration: 6.9 mM,2.84 ± 0.064%
same,percent Bodipy-positive cells,[1],15.1% and 26%
CN1[C@@H]2CC[C@H]1C[C@@H](OC(=O)[C@H](CO)c1ccccc1)C2 [L-Hyoscyamine],percent Bodipy-positive cells,[1],29.7 ± 19%
CN1[C@@H]2CC[C@H]1C[C@@H](OC(=O)[C@H](CO)c1ccccc1)C2 [Hyoscyamine (L)],percent Bodipy-positive cells,,20 ± 1.2%
CN(C)CCN(C)CCc1ccc(Cl)c(Cl)c1 [BD 1047 dihydrobromide],percent Bodipy-positive cells,[1],50.1 ± 3.1%
Nc1nc(N)nc(NC2CC2)n1 [Cyromazine],percent Bodipy-positive cells,[2],11.3 ± 3.9%
same,percent Bodipy-positive cells,[1],52.42 ± 0.26%
Nc1nc(N)nc(NC2CC2)n1,percent Bodipy-positive cells,[1],28.68 ± 0.28%
Cc1ccc(-c2nc3ccc(C)cn3c2CC(=O)N(C)C)cc1,percent Bodipy-positive cells,[1],12.2 ± 1.6%
Cc1ccc(-c2nc3ccc(C)cn3c2CC(=O)N(C)C)cc1 [Zolpidem],percent Bodipy-positive cells,[1],26.1 ± 7.2%
C[C@H](N)CN1CCc2ccc(Br)cc21 [VER-3323 hemifumarate salt],percent Bodipy-positive cells,[1],84.166 ± 0.005%
COc1cc2c(cc1O)C(CCc1ccc(Cl)cc1)N(C)CC2.Cl (stereo unspecified),percent Bodipy-positive cells,[1],62.9 ± 8.8%
N#Cc1nn(-c2c(Cl)cc(C(F)(F)F)cc2Cl)c(N)c1[S+]([O-])C(F)(F)F (stereo unspecified) [Fipronil],percent Bodipy-positive cells,[1],41 ± 7.5%
O=C1C[C@@H]2OCC=C3CN4CC[C@]56c7ccccc7N1[C@H]5[C@H]2[C@H]3C[C@H]46 [Strychnine],percent Bodipy-positive cells,[4],15 ± 7.1%
same,percent Bodipy-positive cells,[1],23.9 ± 4%
O=C1C[C@@H]2OCC=C3CN4CC[C@]56c7ccccc7N1[C@H]5[C@H]2[C@H]3C[C@H]46 [Strychnine HCl],percent Bodipy-positive cells,[4],13.4 ± 2.1%
CC[N+](CC)(CCCNC1=CC(=O)C(NCCC[N+](CC)(CC)Cc2ccccc2)=CC1=O)Cc1ccccc1 [Benzoquinonium dibromide],percent Bodipy-positive cells,[1],5.39 ± 0.46%
CC(C)C[C@@H](N)C1(c2ccc(Cl)cc2)CCC1,percent Bodipy-positive cells,[1],62.3 ± 2.3%
"CC[C@@]1(O)C(=O)OCc2c1cc1n(c2=O)Cc2cc3ccccc3nc2-1 [Camptothecine (S,+)]",percent Bodipy-positive cells,,29.2 ± 10%
CC[C@@]1(O)C(=O)OCc2c1cc1n(c2=O)Cc2cc3ccccc3nc2-1 [Camptothecin],percent Bodipy-positive cells,[2],12.5 ± 1.4%
same,percent Bodipy-positive cells,library stock concentration: 5.7 mM,10.6 ± 4.4%
CC[C@@]1(O)C(=O)OCc2c1cc1n(c2=O)Cc2cc3ccccc3nc2-1 [(S)-(+)-Camptothecin],percent Bodipy-positive cells,[1],59.3 ± 5%

# A different layout for some results above:
smiles | measurement | setting | value
C[C@H]1O[C@H](O[C@H]2[C@H](O)[C@@H](O)[C@@H](O)[C@H](O)[C@@H]2O)[C@@H](N)C[C@@H]1NC(=N)C(=O)O [Kasugamycin hydrochloride] | percent Bodipy-positive cells | [1] | 19.8 ± 3.9%
C[C@H]1O[C@H](O[C@H]2[C@H](O)[C@@H](O)[C@@H](O)[C@H](O)[C@@H]2O)[C@@H](N)C[C@@H]1NC(=N)C(=O)O [Kasugamycin] | percent Bodipy-positive cells | library stock concentration: 5.3 mM | 7.77 ± 1.9%
NCCc1ccc(S(=O)(=O)F)cc1 [4-(2-Aminoethyl)benzenesulfonyl fluoride hydrochloride] | percent Bodipy-positive cells | [1] | 55.5 ± 11%
NCCc1ccc(S(=O)(=O)F)cc1 | percent Bodipy-positive cells | [2] | 27.2 ± 1.1%
